Test results from patent US10245328B2, “Gadolinium complex comprising DO3A-tranexamic acid conjugate” (KYUNGPOOK NATIONAL UNIVERSITY INDUSTRY-ACADEMIC COOPERATION …, priority 2014, dated 2019).

Test: Isothermal titration calorimeter (ITC), binding of Gd^3+ to ligand
Settings: 25° C.; for Ka (association constant) / N (number of Gd^3+ coupled to a single ligand) / ΔH: pH = 4.5; for ΔG: pH = 4.5, calculated from ΔG=−RT·lnKa; for ΔS: pH = 4.5, calculated from ΔG=−RT·lnKa=ΔH−TΔS
Experimental: In order to quantify binding isotherms of paramagnetic metal ions Gd^3+ with a ligand solution, an ITC test is executed at a VP-ITC isothermal titration microcalorimeter (Microcal, USA). Data collection, analysis and plotting are executed with help of software package Origin, version 8.0 from Microcal. A sample cell has a 1.43 mL volume. The cell is filled with a water-soluble buffer solution of the above compound 1a-e ligand (0.2 mM). A water-soluble buffer solution of Gd^3+ (1.0 mM) is input into a 300 μL continuous agitated (300 rpm) syringe and 10 μL aliquots thereof is injected into the cell. At a 3-mins interval, the cell is delivered over 20 s. Data points are collected on a 2 s basis. The measurement is executed at 25° C. All titrations are executed three times to secure data consistency and solution stability. These titration isotherms are integrated to find out an enthalpy change at each injection. In order to fit well with two mathematically different sets of site models, the titration isotherms are analyzed. Via a calorie measurement, parameters including a binding constant (Ka), a change in enthalpy (ΔH), a stoichiometry of binding (N) are calculated. Next, a free energy (ΔG) and an entropy change (ΔS) are calculated using a following complexation equation: Mn++nL↔MLn:ΔG=−RT·InKa=ΔH-TΔS,
where, R indicates a universal gas constant; T is Kelvin temperature.

Row | Structure (SMILES) | Ka (association constant) | N (number of Gd^3+ coupled to a single ligand) | ΔH [kcal/mol] | ΔG [kcal/mol] | ΔS [cal · mol^−1 · K^−1]
1 | CCOC(=O)C1CCC(CNC(=O)CN2CCN(CC(=O)O)CCN(CC(=O)O)CCN(CC(=O)O)CC2)CC1 (centres unmarked) [1a] | 5.19 10^4M^−1 | 0.89 | 4.19 | -6.42 | 35.60
2 | O=C(O)CN1CCN(CC(=O)O)CCN(CC(=O)NCC2CCC(C(=O)O)CC2)CCN(CC(=O)O)CC1 (centres unmarked) [1b] | 25.10 10^4M^−1 | 0.37 | 7.13 | -7.35 | 48.60
3 | NCCNC(=O)C1CCC(CNC(=O)CN2CCN(CC(=O)O)CCN(CC(=O)O)CCN(CC(=O)O)CC2)CC1 (centres unmarked) [1c] | 5.97 10^4M^−1 | 0.28 | 5.94 | -6.52 | 41.80
4 | NC1CCC(NC(=O)CN2CCN(CC(=O)O)CCN(CC(=O)O)CCN(CC(=O)O)CC2)CC1 (centres unmarked) [1d] | 3.41 10^4M^−1 | 0.19 | 4.33 | -6.19 | 35.30
